Test: Binding of 35S-labeled rhOPN to titanium disks with or without CaCl2
Settings: 24 h at 4° C.

**Q.** For “rhOPN: human recombinant phosphorylated form of osteopontin”, which “rhOPN at which Ti disks saturate” value (absence of added CaCl2) is on record?
**A.** Its value is 60 µg.

**Q.** What about the “rhOPN at which Ti disks saturate” value (presence of 100 mM CaCl2) of the same substance?
**A.** Its value is “more than 110 μg protein/disks”.

Reference: patent publication US20060105013A1, “Osteopontin-coated surfaces and methods of use” (priority 2000, published 2006)
